From the supplement of paper PMC4862054
Most values lie at the level of the controls, where differences are scatter.

Assays:
Experiment in all cases: normalised response (% of control), CellTox Green; higher = less cell death (100 = DMSO, 0 = benzethonium chloride kill control)
Conditions in all cases: incubation time: 72 h
BT-474 = tested on: BT-474
Description: (§1)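 DSRT, 72 h incubation, CellTox Green / CellTiter-Glo readout. Signal is normalised to DMSO and benzethonium chloride controls. Value is the normalised response at dose 2.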

BT-549 = tested on: BT-549
Description: as §1

CAL-120 = tested on: CAL-120
Description: as §1

CAL-148 = tested on: CAL-148
Description: as §1

CAL-51 = tested on: CAL-51
Description: as §1

CAL-85-1 = tested on: CAL-85-1
Description: as §1

DU-4475 = tested on: DU-4475
Description: as §1

HCC1143 = tested on: HCC1143
Description: as §1

HCC1599 = tested on: HCC1599
Description: as §1

HCC1937 = tested on: HCC1937
Description: as §1

HDQ-P1 = tested on: HDQ-P1
Description: as §1

Hs578T = tested on: Hs578T
Description: as §1

MCF-10A = tested on: MCF-10A
Description: as §1

MDA-MB-231 = tested on: MDA-MB-231
Description: as §1

MDA-MB-436 = tested on: MDA-MB-436
Description: as §1

MDA-MB-453 = tested on: MDA-MB-453
Description: as §1

MDA-MB-468 = tested on: MDA-MB-468
Description: as §1

MFM-223 = tested on: MFM-223
Description: as §1

Compound | normalised response (BT-474) | normalised response (BT-549) | normalised response (CAL-120) | normalised response (CAL-148) | normalised response (CAL-51) | normalised response (CAL-85-1) | normalised response (DU-4475) | normalised response (HCC1143) | normalised response (HCC1599) | normalised response (HCC1937) | normalised response (HDQ-P1) | normalised response (Hs578T) | normalised response (MCF-10A) | normalised response (MDA-MB-231) | normalised response (MDA-MB-436) | normalised response (MDA-MB-453) | normalised response (MDA-MB-468) | normalised response (MFM-223)
Nc1nc(Cl)nc2c1ncn2[C@@H]1O[C@H](CO)[C@@H](O)[C@@H]1F [Clofarabine] (10 nM) | 105% | 112% | 97.8% | 111% | 69% | 111% | 100% | 103% | 108% | 119% | 68.2% | 124% | 90.4% | 132% | 95.6% | 101% | 122% | 106%
C=C1C[C@@H]2[C@H](CC[C@]3(C)C(=O)CC[C@@H]23)[C@@]2(C)C=CC(=O)C=C12 [Exemestane] (10 nM) | 105% | 104% | 103% | 109% | 99.6% | 102% | 114% | 97% | 116% | 89.5% | 70.9% | 132% | 59.9% | 115% | 106% | 104% | 101% | 99.7%
Nc1nccc(-c2c(-c3ccc(F)cc3)ncn2C2CCCCC2)n1 (10 nM) | 103% | 93.9% | 99.3% | 98.5% | 116% | 104% | 104% | 101% | 110% | 120% | 97.4% | 92.1% | 100% | 109% | 69.4% | 75.8% | 131% | 93.5%
N.N.[Cl][Pt][Cl] [Cisplatin] (1 nM) | 105% | 112% | 102% | 107% | 93.8% | 107% | 103% | 84.7% | 103% | 76% | 117% | 129% | 107% | 84.8% | 93.1% | 98.2% | 102% | 102%
O=C1CN2Cc3c(ccc(Cl)c3Cl)N=C2N1 [Anagrelide] (10 nM) | 95% | 103% | 103% | 104% | 102% | 104% | 95.4% | 79.7% | 96.9% | 102% | 105% | 121% | 84.9% | 90.1% | 89.2% | 100% | 53.7% | 91.3%
